Hit rate of the full screen: of about 340,000 compounds, about 6,200 (1.8%) were called active. This list was built around the results that the source calls inconclusive (neither active nor inactive); the mix of calls is not that of the screen. Calls come from the whole dose curve; as a rule, active = well fitted activation curve with a large enough effect; inconclusive = small, poorly fitted or top-dose-only effect; inactive = no such curve, though single readings can be large or run the other way. Where the call is inconclusive, the potency comes from a doubtful curve fit.
assay: A quantitative high throughput screen for small molecules that induce DNA re-replication in SW480 colon adenocarcinoma cells.; note: nearly all actives have a fitted effect of over 55% in size; conditions: Hoechst DNA content imaging, 48 h; series mostly up to 46.1 µM
Method in brief: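 Compounds, transferred as 23 nL by pin tool, were incubated with cells for 48 hr; DNA content per nucleus was then quantified by Hoechst staining and fluorescence plate imaging.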
Potency is the fitted concentration of half-maximal effect.

Structure (SMILES) | Potency
Cc1cccc(/C=C2\Sc3ccc(C(=O)N4CCC(C)CC4)cc3N(C)C2=O)c1 | inconclusive: 23.1 µM [activator, single point]
Cc1ccc(-n2nnnc2-c2cnc3ccc(Cl)cc3c2-c2ccccc2)cc1 | inconclusive: 29.1 µM [activator, single point]
COc1ccc([N+](=O)[O-])cc1/C=N/Nc1nn[nH]n1 | inconclusive: 18.4 µM [activator, single point]
CCC(C)C(=O)OC1CCC=C2C=CC(C)C(CCC3CC(O)CC(=O)O3)C21 (configuration not stated) | inconclusive: 2.59 µM [activator, full curve]
COc1cccc(/C=N/Nc2nc(Nc3ccccc3)nc(-n3nc(C)cc3C)n2)c1O | active: 5.8 µM
N=C1/C(=C\c2ccc(-c3cccc(C(=O)O)c3)o2)C(=O)N=C2SC=C(c3ccccc3)N12 | active: 8.2 µM
CCOC(=O)C(=CNc1ccc(NC2=NCC(C)(C)S2)cc1)C(=O)OCC | inconclusive: 4.11 µM [activator, single point]
CCN1C(=O)C(CC(=O)Nc2cccc(C(C)=O)c2)S/C1=N\c1ccccn1 (configuration not stated) | inactive
O=C(CC1C(=O)NCCN1Cc1cccc(F)c1)NC1CCC1 (configuration not stated) | inconclusive: 7.31 µM [activator, partial curve]
CN(C)Cc1ccccc1Sc1ccc2c(c1)CCCC2 | inconclusive: 18.4 µM [activator, single point]
Cn1cc(CN(Cc2ccccc2)C[C@@H]2CCC(=O)N2)c(-c2ccccc2F)n1 | inconclusive: 29.1 µM [activator, single point]
O=C(C=C(C(=O)c1ccccc1)c1ccccc1)c1ccccc1 | inconclusive: 29.1 µM [activator, single point]
COc1cc(-c2noc(C)c2/C=C/c2cccc([N+](=O)[O-])c2)cc(OC)c1OC | inconclusive: 3.26 µM [activator, partial curve, poor fit]
O=C(c1cc([N+](=O)[O-])ccc1Cl)N1c2ccccc2Sc2ccccc21 | inconclusive: 18.4 µM [activator, single point]
Cc1nn(CCCC(=O)NC(C)c2ccccc2)c(=O)c2nn(-c3ccccc3)c(C)c12 (configuration not stated) | inconclusive: 6.51 µM [activator, partial curve, poor fit]
CCOC(=O)Cc1c(C)nc2c(-c3ccccc3)cnn2c1C | inconclusive: 29.1 µM [activator, single point]
Cn1c(C(=O)N2CCCC(C(=O)NCCCc3ccccc3)C2)cc2sccc21 (configuration not stated) | inactive
O=C1C(c2ccccc2)=[N+]([O-])c2ccccc21 | inconclusive: 23.1 µM [activator, single point]
CCN(CC)CCCN=Cc1c(O)n(-c2cccc(C)c2)c(=O)c2ccccc12 | inconclusive: 29.1 µM [activator, partial curve, poor fit]
Cc1ccccc1OCC(=O)N/N=C/c1ccc(N2CCOCC2)o1 | inconclusive: 29.1 µM [activator, single point]
CC(=O)N1c2ccc(S(=O)(=O)N3CCC(C(=O)NC(C)c4ccccc4)CC3)cc2CC1C (configuration not stated) | inactive
O=C(NNC(=O)c1ccc(Oc2ccc(C3SCCS3)cc2)o1)c1ccc(Cl)cc1 | inconclusive: 16.4 µM [activator, single point]
COc1cccc(/C=N\NC(=O)c2sc(N)nc2C)c1OC | inconclusive: 29.1 µM [activator, single point]

Structure (SMILES) | Potency
CCOc1ccc(-n2c(-c3ccc(OC)cc3)c[n+]3c2CCCCC3)cc1 | inconclusive: 16.4 µM [activator, single point]
Cc1cc(Br)ccc1NC(=O)CN(C)C(=O)CSCc1ccccc1 | inactive
Cc1ccc2nc3c(cc(C(=O)NC4CCCCC4)c(=N)n3C3CCCCC3)c(=O)n2c1 | active: 18.4 µM
CC(=O)Nc1ccc(S(=O)(=O)NC(CC(=O)N(C)Cc2ccccc2)C(C)C)cc1 (configuration not stated) | inconclusive: 20.6 µM [activator, single point]
Cc1sc2nc(C3CC3)nc(SCC(=O)N3CCc4ccccc4C3)c2c1C | inactive
O=C(Nc1ccccc1)NC1CCN(Cc2nnnn2C2CCCCC2)CC1 | inactive
Cc1noc(C)c1C(=O)NCCc1c(C)[nH]c2ccccc12 | inactive
COc1ccc(C2=NN3C(C2)c2ccccc2OC32C(=O)N(C)c3ccccc32)cc1 (configuration not stated) | inconclusive: 29.1 µM [activator, partial curve, poor fit]
CCN1CCN(c2cc(C)c3cc(NC(=S)N4CC(C)CC(C)C4)ccc3n2)CC1 (configuration not stated) | inconclusive: 29.1 µM [activator, single point]
COc1ccc(NC(=S)N(CCCN2CCCC(C)C2)Cc2cccs2)cc1 (configuration not stated) | inactive
CCOc1ccccc1NC(=O)COc1coc(CN2CCc3ccccc32)cc1=O | inconclusive: 1.46 µM [activator, partial curve, poor fit]
CC1CN(C(=O)CCNC(=O)c2ccc(Cl)cc2)CC(C)O1 (configuration not stated) | inconclusive: 23.1 µM [activator, single point]
CCC(=O)c1ccc(OCC(=O)OCC(=O)NCCCc2ccccc2)cc1 | inactive
Cc1cccc(NC(=S)NC(=O)/C=C/c2ccco2)c1 | active: 2.06 µM
CC1CCN(Cc2cc(=O)oc3cc(O)c(Cl)cc23)CC1 | inconclusive: 29.1 µM [activator, partial curve, poor fit]
COc1cc(C2C(C(=O)N3CCOCC3)=C(C)NC3=C2C(=O)CCC3)ccc1OC(C)=O (configuration not stated) | inconclusive: 0.13 µM [activator, full curve, poor fit]
CC(=O)C[C@H]1c2cc(C(F)(F)F)ccc2S(=O)(=O)N1c1ccc(N(C)C)cc1 | inactive
O=S(c1ccccc1O)S(=O)c1ccccc1O (configuration not stated) | inconclusive: 29.1 µM [activator, single point]
Cc1ccc(S(=O)(=O)c2c(N)n(/N=C/c3ccco3)c3nc4ccccc4nc23)cc1C | inconclusive: 23.1 µM [activator, partial curve, poor fit]
Cc1ccccc1CC1SC(N=C(N)N)=NC1=O (configuration not stated) | inconclusive: 8.2 µM [activator, single point]
Cc1sc2ncnc(N3CCC(C(=O)Nc4sc5c(c4C(N)=O)CCC(C)C5)CC3)c2c1C (configuration not stated) | inactive
CCCCCOc1ccc(NC(=O)C(=O)NCC2CCCN2CC)cc1 (configuration not stated) | inactive
CCNC(=O)CN(c1ccc(F)cc1)S(=O)(=O)c1ccc2c(c1)OCCO2 | inconclusive: 29.1 µM [activator, single point]

Of the compounds above, 2 contain an NH in an aromatic ring:
Structure (SMILES) | Potency
COc1ccc([N+](=O)[O-])cc1/C=N/Nc1nn[nH]n1 | inconclusive: 18.4 µM [activator, single point]
Cc1noc(C)c1C(=O)NCCc1c(C)[nH]c2ccccc12 | inactive

Fetched by compound from the entries so far, 2 records:
Structure (SMILES) | Potency
CC(=O)C[C@H]1c2cc(C(F)(F)F)ccc2S(=O)(=O)N1c1ccc(N(C)C)cc1 | inactive
COc1ccc(C2=NN3C(C2)c2ccccc2OC32C(=O)N(C)c3ccccc32)cc1 (configuration not stated) | inconclusive: 29.1 µM [activator, partial curve, poor fit]

Carrying on:

Structure (SMILES) | Potency
O=C(NCc1ccccc1)c1cccc(COc2cc(Cl)ccc2Cl)c1 | inconclusive: 0.082 µM [activator, full curve, poor fit]
C=CCC[C@H](Cc1ccc(F)cc1)C(=O)O[C@H](CNC(=O)[C@@H](CC=C)CC(=O)N(CCO)Cc1ccccc1)c1ccccc1 | inconclusive: 20.6 µM [activator, single point]
COc1ccc(NC(=O)[C@@H]2CCCN2S(=O)(=O)c2ccccc2F)cc1S(=O)(=O)N1CCCCC1 | inactive
COc1nc(Nc2ccc([N+](=O)[O-])cc2)nc(NC2CCCCC2)n1 | inconclusive: 13 µM [activator, partial curve]
O=C(COC(=O)c1ccc(O)cc1O)NC12CC3CC(CC(C3)C1)C2 | inactive
COC(=O)CC1C(=O)NCCN1C(=O)c1sc2ccccc2c1Cl (configuration not stated) | inactive
O=C1[C@H](Cc2ccccc2)NCC=CC[C@H](c2ccco2)N1Cc1ccccc1 | inconclusive: 0.291 µM [activator, partial curve, poor fit]
NC(=S)NN=Cc1ccc(-c2ccc(S(=O)(=O)Nc3ncccn3)cc2)o1 | inactive
CC(C)COc1cccc(C(=O)N(C)CC(=O)Nc2cccc3ccccc23)c1 | inactive
Cc1ccccc1-n1c(SCC(=O)Nc2ccc3c(c2)OCO3)nnc1-c1ccccn1 | inconclusive: 29.1 µM [activator, single point]
COC(=O)C1(C)CN(S(=O)(=O)c2ccc(C)cc2)c2cc(OC)ccc2C1=O (configuration not stated) | inconclusive: 18.4 µM [activator, single point]
CN(C)S(=O)(=O)N1CCC(Oc2cccc(C(=O)NC3CCCCC3)c2)CC1 | inconclusive: 29.1 µM [activator, single point]
COc1cccc(/C=N/NC(=O)c2ccc(=O)n(C)c2)c1O | inactive
O=C1/C(=C/c2cccnc2)CCC/C1=C\c1cccnc1 | active: 1.3 µM
CN(C)CCCNc1oc(-c2ccc(Cl)cc2)nc1S(=O)(=O)c1ccccc1 | inconclusive: 29.1 µM [activator, single point]
CSCC[C@H](NC(=O)OC(C)(C)C)C(=O)N1CCC(C(=O)NCC(=O)Nc2ccc(C)cc2)CC1 | inactive
CN1C(=O)C(C)(C)c2cc(S(=O)(=O)N3CCN(c4ccccc4F)CC3)ccc21 | inconclusive: 0.92 µM [activator, full curve, poor fit]
Cc1cc(=O)[nH]c(N/N=C/c2cc(C)n(-c3ccccc3)c2C)n1 | inconclusive: 23.1 µM [activator, partial curve, poor fit]
COc1cccc(Nc2nc(NCCO)c3ccccc3n2)c1 | inconclusive: 29.1 µM [activator, single point]
N#Cc1nc(COc2ccc(-c3ccccc3)cc2)oc1NCCCN1CCOCC1 | inconclusive: 20.6 µM [activator, partial curve, poor fit]
Cc1ccc(S(=O)(=O)N2CCOCC2)cc1C(=O)OCC(=O)NC1CCCC(C)C1C (configuration not stated) | inconclusive: 3.26 µM [activator, single point]

— PubChem BioAssay AID624297 (National Center for Advancing Translational Sciences (NCATS), 2012)
